According to US7393959B2, “Di-aryl substituted pyrrole modulators of metabotropic glutamate receptor-5” (Merck & Co. Inc., priority 2003, dated 2008):
Some entries share one result that the patent states for a list of compounds.

Amino acid sequences for entries named in this document (tags omitted). Residues count along the entry.
UniProt P41594, 21-1180 isoform P41594-2 limits assumed: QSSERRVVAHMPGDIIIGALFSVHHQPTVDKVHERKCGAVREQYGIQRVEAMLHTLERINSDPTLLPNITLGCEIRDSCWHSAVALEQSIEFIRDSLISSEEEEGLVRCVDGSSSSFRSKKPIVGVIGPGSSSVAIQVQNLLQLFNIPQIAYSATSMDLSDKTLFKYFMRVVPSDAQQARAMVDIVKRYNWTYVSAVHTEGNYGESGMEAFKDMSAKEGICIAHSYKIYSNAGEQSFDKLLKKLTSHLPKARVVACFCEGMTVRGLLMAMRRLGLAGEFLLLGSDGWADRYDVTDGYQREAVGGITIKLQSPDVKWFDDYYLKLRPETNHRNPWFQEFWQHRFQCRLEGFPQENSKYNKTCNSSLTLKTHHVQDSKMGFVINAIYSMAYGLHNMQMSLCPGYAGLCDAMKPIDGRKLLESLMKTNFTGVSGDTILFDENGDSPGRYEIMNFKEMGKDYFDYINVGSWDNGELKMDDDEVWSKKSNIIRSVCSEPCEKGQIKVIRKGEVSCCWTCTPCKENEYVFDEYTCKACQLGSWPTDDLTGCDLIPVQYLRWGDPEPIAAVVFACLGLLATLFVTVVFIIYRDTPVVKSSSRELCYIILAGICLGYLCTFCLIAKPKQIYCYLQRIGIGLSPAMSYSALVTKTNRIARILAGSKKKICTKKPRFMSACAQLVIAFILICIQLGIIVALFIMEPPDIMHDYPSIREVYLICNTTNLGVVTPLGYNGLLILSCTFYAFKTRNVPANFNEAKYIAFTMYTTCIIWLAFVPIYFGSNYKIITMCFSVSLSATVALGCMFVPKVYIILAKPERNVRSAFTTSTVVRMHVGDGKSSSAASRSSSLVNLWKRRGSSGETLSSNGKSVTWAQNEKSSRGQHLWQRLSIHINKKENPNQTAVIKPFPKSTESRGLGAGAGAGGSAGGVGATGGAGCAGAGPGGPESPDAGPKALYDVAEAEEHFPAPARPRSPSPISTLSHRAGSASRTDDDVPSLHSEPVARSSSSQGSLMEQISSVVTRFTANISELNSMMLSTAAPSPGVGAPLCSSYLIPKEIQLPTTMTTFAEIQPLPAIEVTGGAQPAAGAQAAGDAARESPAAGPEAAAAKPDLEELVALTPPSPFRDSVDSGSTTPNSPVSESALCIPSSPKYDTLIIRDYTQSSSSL

Tests used:
hmGluR5a receptor = molecular target: T1, hmGluR5a receptor (Homo sapiens, UniProt P41594); experiment: Calcium flux assay (fura-2, glutamate-evoked [Ca2+]i); assay type: cell-based; settings: hmGluR5a/L38-20 cells, 10 μM glutamate; stated as alternative ('or') to PI assay
T1 construct: expressed in transfected cells; host or cells: mouse fibroblast Ltk- cells (hmGluR5a/L38-20 cell line)

hmGluR5 = molecular target: T2, hmGluR5 (Homo sapiens, UniProt P41594); experiment: Phosphatidylinositol hydrolysis (PI) assay; assay type: cell-based; settings: hmGluR5/L38-20 cells, 10 μM glutamate; stated as alternative ('or') to calcium flux assay
T2 construct: expressed in transfected cells; host or cells: mouse fibroblast Ltk- cells (hmGluR5/L38-20 cells; LM5a cell line)

| SMILES | concentration giving inhibition in the calcium flux assay (hmGluR5a receptor) [µM] | concentration giving inhibition in the PI assay (hmGluR5) [µM] |
| --- | --- | --- |
| c1ccc(-c2ccn(-c3cccc(-c4cccnc4)c3)c2)nc1 [Example 1, 2-[1-(3-Pyridin-3-ylphenyl)-1H-pyrrol-3-yl]pyridine] | ≤ 10 | ≤ 100 |
| COc1cc(-n2ccc(-c3ccccn3)c2)ccc1-c1ccccn1.Cl.Cl [Example 2, 2-[1-(3-Methoxy-4-pyridinium-2-ylphenyl)-1H-pyrrol-3-yl]pyridinium dichloride] | ≤ 10 | ≤ 100 |
| c1cncc(-c2cccc(-n3ccc(-c4nccs4)c3)c2)c1 [Example 3, 3-{3-[3-(1,3-Thiazol-2-yl)-1H-pyrrol-1-yl]phenyl}pyridine] | ≤ 10 | ≤ 100 |
| COc1cc(-n2ccc(-c3nccs3)c2)ccc1-c1ccccn1 [Example 4, 2-{2-Methoxy-4-[3-(1,3-thiazol-2-yl)-1H-pyrrol-1-yl]phenyl}pyridine] | ≤ 10 | ≤ 100 |
| N#Cc1cc(-n2ccc(-c3ccccn3)c2)ccc1-c1ccccn1 [Example 5, 2-Pyridin-2-yl-5-(3-pyridin-2-yl-1H-pyrrol-1-yl)benzonitrile] | ≤ 10 | ≤ 100 |
| N#Cc1ccccc1-c1cc(F)cc(-n2ccc(-c3ccccn3)c2)c1 [Example 6, 3′-Fluoro-5′-(3-pyridin-2-yl-1H-pyrrol-1-yl)-1,1′-biphenyl-2-carbonitrile] | ≤ 10 | ≤ 100 |
| Cc1cnccc1-c1cc(F)cc(-n2ccc(-c3ccccn3)c2)c1 [Example 7, 4-[3-Fluoro-5-(3-pyridin-2-yl-1H-pyrrol-1-yl)phenyl]-3-methylpyridine] | ≤ 10 | ≤ 100 |
| c1ccc(-c2ccn(-c3cccc(-c4cccnc4)n3)c2)nc1 [Example 8, 6-(3-Pyridin-2-yl-1H-pyrrol-1-yl)-2,3′-bipyridine] | ≤ 10 | ≤ 100 |
